For 2 molecules, binding results are on record in publication PMC8860610.

By UniProt entry, the sequences of proteins in these tests, tags left out. Where a name states a change or a piece, a line headed by the entry shows the natural chain unless it says otherwise.
UniProt P32558: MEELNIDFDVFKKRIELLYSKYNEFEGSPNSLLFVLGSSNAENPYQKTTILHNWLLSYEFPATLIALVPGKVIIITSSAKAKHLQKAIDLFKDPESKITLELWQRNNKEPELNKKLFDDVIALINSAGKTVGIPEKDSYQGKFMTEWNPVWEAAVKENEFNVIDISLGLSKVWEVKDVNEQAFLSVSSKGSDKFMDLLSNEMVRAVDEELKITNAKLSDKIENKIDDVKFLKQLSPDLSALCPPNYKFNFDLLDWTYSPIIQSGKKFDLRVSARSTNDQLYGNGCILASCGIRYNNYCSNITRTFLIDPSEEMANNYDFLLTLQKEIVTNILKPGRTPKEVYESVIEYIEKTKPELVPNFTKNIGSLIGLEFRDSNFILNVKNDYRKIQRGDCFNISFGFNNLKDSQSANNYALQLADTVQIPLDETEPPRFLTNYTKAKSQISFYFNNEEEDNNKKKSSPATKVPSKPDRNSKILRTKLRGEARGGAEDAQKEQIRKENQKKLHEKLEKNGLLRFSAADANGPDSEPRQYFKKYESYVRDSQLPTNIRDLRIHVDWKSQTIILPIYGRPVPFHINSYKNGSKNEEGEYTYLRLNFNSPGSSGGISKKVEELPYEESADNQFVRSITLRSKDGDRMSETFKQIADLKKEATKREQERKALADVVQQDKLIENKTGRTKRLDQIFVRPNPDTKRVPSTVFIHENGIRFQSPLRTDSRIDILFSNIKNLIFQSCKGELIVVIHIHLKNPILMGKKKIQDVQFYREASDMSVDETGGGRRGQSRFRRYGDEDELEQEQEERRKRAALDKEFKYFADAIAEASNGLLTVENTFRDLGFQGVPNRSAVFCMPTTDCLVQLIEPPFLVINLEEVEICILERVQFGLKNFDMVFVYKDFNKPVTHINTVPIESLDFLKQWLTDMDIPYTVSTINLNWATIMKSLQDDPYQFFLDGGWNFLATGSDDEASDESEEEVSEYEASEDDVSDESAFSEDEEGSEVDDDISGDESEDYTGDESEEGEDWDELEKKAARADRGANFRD
UniProt Q04636: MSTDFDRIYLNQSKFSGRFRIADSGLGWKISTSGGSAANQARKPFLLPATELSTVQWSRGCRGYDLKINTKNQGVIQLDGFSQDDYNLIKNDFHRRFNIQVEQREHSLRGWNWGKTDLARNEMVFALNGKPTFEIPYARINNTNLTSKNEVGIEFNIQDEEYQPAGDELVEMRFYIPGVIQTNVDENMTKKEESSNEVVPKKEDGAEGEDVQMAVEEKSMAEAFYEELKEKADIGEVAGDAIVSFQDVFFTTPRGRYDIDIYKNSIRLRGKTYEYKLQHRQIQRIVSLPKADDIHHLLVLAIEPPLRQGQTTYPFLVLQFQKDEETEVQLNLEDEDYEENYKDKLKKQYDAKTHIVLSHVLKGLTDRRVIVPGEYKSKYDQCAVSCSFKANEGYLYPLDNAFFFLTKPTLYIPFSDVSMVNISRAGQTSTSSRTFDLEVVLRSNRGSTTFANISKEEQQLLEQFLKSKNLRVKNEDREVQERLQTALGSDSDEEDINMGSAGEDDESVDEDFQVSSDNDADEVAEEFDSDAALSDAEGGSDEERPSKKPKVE

The assay has as its target FACT consisting of Spt16 and GST-tagged Pob3 (Saccharomyces cerevisiae) (UniProt P32558+Q04636). Put plainly: pull-down; 0.5 μM GST-Pob3Spt16 as bait with 1 μM replisome factor, on ice 30 min, immobilised on glutathione agarose 90 min at 4°C, washed with buffer G (50 mM HEPES-NaOH pH 7.6, 300 mM NaCl, 0.05% NP-40), eluted with glutathione, SDS-PAGE; both purified.

These are yes or no findings as the source states them, for the method shown.

B1: Ctf4 (protein, UniProt Q01454 1-927)
chain: MVSVIDKLVFDFGGKTLVSLAPDNNTLCVANKNGLTKILKTNNPEEEPETLDSSKLVSSIKCYSNSHFLMTTMQGDALRYNIDSSQEELLARFALPLRDCCVIHSGKMAVFGGDDLELILLELDDETHKKHAIKIDEQVSQISYNSQMNILAVSMINGKVQIFSLTSTIPNKVHELNDYIVANSYDDTHRDKILSNMMDDIDKDNDNDLSETADPDENNVADPEFCAANRICTRVAWHPKGLHFALPCADDTVKIFSIKGYSLQKTLSTNLSSTKAHFIDLQFDPLRGTYIAAVDLNNKLTVWNWETSEIHYTREFKRKITNIAWKIQADSKTLDLVLGTWSGSIAIVQNLAESVVSNIPDQSVAESSTKHGLFVDSESDLENLEGNDDINKSDKLFSDITQEANAEDVFTQTHDGPSGLSEKRKYNFEDEEDFIDDDDGAGYISGKKPHNEHSYSRVHKTHSFPISLANTGKFRYMPFSPAGTPFGFTDRRYLTMNEVGYVSTVKNSEQYSITVSFFDVGRFREYHFEDLFGYDLCFLNEKGTLFGQSKTGQIQYRPHDSIHSNWTKIIPLQAGERITSVAATPVRVIVGTSLGYFRSFNQFGVPFAVEKTSPIVALTAQNYRVFSVHYSQFHGLSYSLSELGTSSKRYYKRECPLPMSLPNINSDMKKDANLDYYNFNPMGIKSLFFSSYGDPCIFGSDNTLLLLSKWRSPEESKWLPILDSNMEIWKMSGGKETTDIHVWPLALAYDTLNCILVKGKHIWPEFPLPLPSEMEIRMPVFVKSKLLEENKAILNKKNEIGADTEAEEGEEDKEIQIPVSMAAEEEYLRSKVLSELLTDTLENDGEMYGNENEVLAALNGAYDKALLRLFASACSDQNVEKALSLAHELKQDRALTAAVKISERAELPSLVKKINNIREARYEQQLK
Consider B1, for which the binding entry is “no binding (tested: 1 μM)”.

B2: Cdc45 (protein, UniProt Q08032 1-650)
chain: MYYGISQFSEAYNKILRNSSSHSSCQLVIFVSCLNIDALCATKMLSLLFKKQLVQSQIVPIFGYSELRRHYSQLDDNINSLLLVGFGGVIDLEAFLEIDPQEYVIDTDEKSGEQSFRRDIYVLDAHRPWNLDNIFGSQIIQCFDDGTVDDTLGEQKEAYYKLLELDEESGDDELSGDENDNNGGDDEATDADEVTDEDEEDEDETISNKRGNSSIGPNDLSKRKQRKKQIHEYEGVLEEYYSQGTTVVNSISAQIYSLLSAIGETNLSNLWLNILGTTSLDIAYAQVYNRLYPLLQDEVKRLTPSSRNSVKTPDTLTLNIQPDYYLFLLRHSSLYDSFYYSNYVNAKLSLWNENGKKRLHKMFARMGIPLSTAQETWLYMDHSIKRELGIIFDKNLDRYGLQDIIRDGFVRTLGYRGSISASEFVEALTALLEVGNSTDKDSVKINNDNNDDTDGEEEEDNSAQKLTNLRKRWVSNFWLSWDALDDRKVELLNRGIQLAQDLQRAIFNTGVAILEKKLIKHLRIYRLCVLQDGPDLDLYRNPLTLLRLGNWLIECCAESEDKQLLPMVLASIDENTDTYLVAGLTPRYPRGLDTIHTKKPILNNFSMAFQQITAETDAKVRIDNFESSIIEIRREDLSPFLEKLTLSGLL
B2: the binding entry was “no binding (tested: 1 μM)”.
